# Test results reported in the supplement of paper PMC10735217.
# Structures can show the parent of a compound that is named as a salt. Some of the results follow. Single values are uncertain here, since repeats match poorly.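 The human kidney-derived cells carry a stably integrated construct of eight TEAD-binding elements driving luciferase, read by luminescence in a drug-repurposing library screen. A compound counts as a hit when its signal is more than five robust Z scores above the plate mean.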
# Test system: HEK293A TEAD-LUC reporter
# Assay: TEAD-luciferase reporter activity (YAP activation), robust Z score vs plate; higher = stronger YAP/TEAD activation
# Settings: 24 h
Structure (SMILES),TEAD-luciferase reporter activity (compound concentration: 200 nM),TEAD-luciferase reporter activity (compound concentration: 2 uM),TEAD-luciferase reporter activity (compound concentration: 10 uM)
CC1(C)CCCN1C(=O)c1ccc(-c2cc(F)ccc2OCC(=O)O)cc1Cl,inactive: -0.654,inactive: 1.46,inactive: -1.25
COc1ccc(CCNC(=O)COc2cc(O)c3c(=O)cc(-c4ccccc4)oc3c2)cc1,inactive: -0.973,inactive: -0.743,inactive: -2.14
O=C(O)CCCc1ccccc1,inactive: 0.81,inactive: 0.434,inactive: -0.0424
O=C1c2cccc(O)c2C(=O)c2c(O)cccc21,inactive: -1.44,inactive: 2.66,inactive: 1.95
CC(=O)OC(C)C(=O)OCC[N+](C)(C)C (stereo not given) [aclatonium napadisilate],inactive: -1.71,inactive: -0.335,inactive: 2.1
CCOC(=O)[C@@H](N)CCC(=O)N[C@@H](CSCc1ccccc1)C(=O)N[C@@H](C(=O)OCC)c1ccccc1 [ezatiostat hydrochloride],inactive: -0.859,inactive: -1.56,inactive: 4.01
C#C[C@]1(O)CC[C@H]2[C@@H]3CCC4=CC(N=O)CC[C@@H]4[C@H]3CC[C@@]21CC (stereo not given in full) [Norelgestromin],inactive: -1.17,inactive: -0.0673,inactive: -2.31
O=C(Nc1cccnn1)N1CCC(=Cc2cccc(Oc3ccc(C(F)(F)F)cn3)c2)CC1,inactive: 0.148,inactive: -0.973,inactive: -1.14
CCCCC[C@H](O)/C=C/[C@H]1[C@H](O)CC(=O)[C@@H]1C/C=C\CCCC(=O)OC,inactive: -0.832,inactive: -0.615,inactive: -0.377
Cc1c(O)cc(C(C)C)cc1OCCN(C)C [Deacetyl moxisylyte hydrochloride],inactive: 0.286,inactive: 0.185,inactive: -0.137
COc1cccc2c1[C@@H]1CN(CCCCn3c(=O)[nH]c4c(sc5ncc(-c6ccccc6)nc54)c3=O)C[C@@H]1CO2 [Fiduxosin hydrochloride],inactive: -0.688,inactive: -0.655,inactive: 0.756
COc1ccccc1CN1CCCC12Cc1ccccc1CNC2=O (stereo not given),inactive: -0.471,–,inactive: -0.265
O=C(O)c1cccc(Cc2cc(Cl)ccc2OCc2ccc(Cl)cc2F)n1,inactive: -0.463,inactive: -0.284,active: 8
CCCCC(CC)CNC(=O)CC(C)OC(=O)CCC(=O)O (stereo not given) [butoctamide hydrogen succinate],inactive: 0.188,inactive: -1.19,inactive: -1.34
O=C(O)C1CN(CCCP(=O)(O)O)CCN1 (stereo not given),inactive: -0.0612,–,inactive: 1.32
COc1ccc2c(c1)OC(C)(C)[C@H](c1ccccc1)[C@H]2c1ccc(OCCN2CCCC2)cc1,inactive: -1.85,inactive: 1.33,inactive: 0.248
CN(C)CCCN1c2ccccc2C=Cc2ccccc21,inactive: -1.11,inactive: 0.537,inactive: 2.51
OCC(CO)(CCl)CCl,inactive: 1.2,inactive: -0.459,inactive: 0.794
Fc1ccc2c(CCNCc3cccc(OCC(F)(F)C(F)(F)F)c3)c[nH]c2c1,inactive: -0.0352,–,inactive: 1.29
"CN1CCCC1c1cccnc1 (stereo not given) [nicotine, Neuraltus]",inactive: -0.999,inactive: 2.15,inactive: -0.989
CNC(=O)c1cnn(-c2nc(N)c3ncn([C@@H]4O[C@H](CO)C(O)C4O)c3n2)c1 (stereo not given in full),inactive: 0.256,inactive: 1.63,inactive: 3.9
CC(C)COCC(CN(Cc1ccccc1)c1ccccc1)N1CCCC1 (stereo not given) [bepridil],inactive: 0.845,inactive: 2.9,inactive: 4.13
CC(=O)c1cc(C)cc(C)c1NC(=O)c1sccc1S(=O)(=O)Nc1onc(C)c1C,inactive: -1.53,inactive: 1.42,inactive: -1.18
O=C([O-])[C@H](O)[C@@H](O)[C@H](O)[C@H](O)CO,inactive: -1.25,–,inactive: -0.673
O=C([O-])[C@H](O)[C@@H](O)[C@H](O)[C@H](O)CO [Zinc gluconate],–,inactive: -1.37,–
COCCOCCNCC1COc2ccccc2O1 (stereo not given),inactive: -0.899,inactive: 1.84,inactive: -0.675
C=CCN(/C=C1\C(=O)O[C@H](COC)[C@@]2(C)C1=C(O)C(=O)C1=C2[C@H](OC(C)=O)C[C@]2(C)C(=O)CC[C@@H]12)CC=C [Sonolisib],inactive: 0.552,inactive: -1.14,inactive: -1.24

# Full records as entered above. Values in the order: TEAD-luciferase reporter activity (compound concentration: 200 nM) | TEAD-luciferase reporter activity (compound concentration: 2 uM) | TEAD-luciferase reporter activity (compound concentration: 10 uM)
# C=CCN(/C=C1\C(=O)O[C@H](COC)[C@@]2(C)C1=C(O)C(=O)C1=C2[C@H](OC(C)=O)C[C@]2(C)C(=O)CC[C@@H]12)CC=C [Sonolisib] as listed: inactive: 0.552 | inactive: -1.14 | inactive: -1.24
# CC(=O)c1cc(C)cc(C)c1NC(=O)c1sccc1S(=O)(=O)Nc1onc(C)c1C as listed: inactive: -1.53 | inactive: 1.42 | inactive: -1.18
